The list is a part of this screen's results and no random one: it covers a few groups of compounds. Other doses and runs of a compound may be missing. T/C: endpoint of the treated group in % of that of the vehicle group. Some doses have a count of surviving animals in place of a T/C: the source holds a T/C of zero for them, seemingly a mark for toxic or unscored doses. Some doses without a T/C left all or most animals alive at the check, yet need not have been tolerated: survival well below the control is almost never listed, so the zero probably covers shortened survival too. Counts of survivors are from the toxicity check (mostly the fifth day) where no day follows; animals may have died later. Schedules are NCI's codes, taken here to give the interval after Q, in days (D) or hours (H), and the number of doses after X. Signs of the kind (2×) count equal records among those shown. For survival time, the PubChem record calls one and a half times the control and up active, and a quarter to a half above the control has no call in these data; cut-offs in other NCI protocols can differ. Some T/C values carry the count of animals alive at the toxicity check (mostly the fifth day); where neither a count nor a note follows, no animal had died by that day. Some doses were run more than once; the results are listed from low to high.
Tested on: AKR/Lw mice, AKR lymphoma ip, median survival T/C
Experiment: NCI In Vivo Anticancer Drug Screen. Data for tumor model Lymphoma AKR (Transplanted) (intraperitoneal) in AKR/Lw mice
Conditions: T/C endpoint: median survival time, higher T/C = longer survival
Protocol: The antitumor activity of compounds was measured in mice bearing transplantable tumors. Survival or tumor size were measured and the results are expressed as the measurement made in the treated group (T) divided by the measurement made in the vehicle treated control group (C). The tumor model used in this assay is Lymphoma AKR (Transplanted) (intraperitoneal) in AKR/Lw mice

[1] = dose: 25.0 mg/kg/injection, schedule: Q01DX001 (ip), vehicle: saline
[2] = dose: 25.0 mg/kg/injection, schedule: Q01DX009 (ip), vehicle: saline
[3] = dose: 100.0 mg/kg/injection, schedule: Q01DX009 (ip), vehicle: saline
[4] = dose: 125.0 mg/kg/injection, schedule: Q04DX003 (ip), vehicle: saline

## NC(=O)c1[nH]cnc1/N=N\N(CCCl)CCCl
dose: 12.5 mg/kg/injection, schedule: Q01DX009 (ip), vehicle: Klucel (hydroxypropylcellulose) (HPC)
  T/C: 105 % of control
dose: 12.5 mg/kg/injection, schedule: Q04DX003 (ip), vehicle: Klucel (hydroxypropylcellulose) (HPC)
  T/C: 105 % of control
dose: 25.0 mg/kg/injection, schedule: Q01DX001 (ip), vehicle: Klucel (hydroxypropylcellulose) (HPC), evaluated on day 5
  T/C: 105 % of control
dose: 25.0 mg/kg/injection, schedule: Q01DX001 (ip), vehicle: Klucel (hydroxypropylcellulose) (HPC), evaluated on day 60
  T/C: 105 % of control
[1]
  T/C: 109 % of control
  survivor count: 10 of 10
dose: 25.0 mg/kg/injection, schedule: Q01DX009 (ip), vehicle: Klucel (hydroxypropylcellulose) (HPC)
  T/C: 100 [9 of 10 alive], 108, 123 % of control [9 of 10 alive]
[2]
  T/C: 110 % of control
  survivor count: 10 of 10
dose: 25.0 mg/kg/injection, schedule: Q04DX003 (ip), vehicle: Klucel (hydroxypropylcellulose) (HPC), evaluated on day 30
  T/C: 102 % of control
dose: 25.0 mg/kg/injection, schedule: Q04DX003 (ip), vehicle: Klucel (hydroxypropylcellulose) (HPC), evaluated on day 60
  T/C: 94 [9 of 10 alive] and 116 % of control
dose: 30.0 mg/kg/injection, schedule: Q04DX003 (ip), vehicle: Klucel (hydroxypropylcellulose) (HPC)
  T/C: 100 % of control
dose: 32.0 mg/kg/injection, schedule: Q01DX005 (ip), vehicle: water
  T/C: 105 % of control
dose: 37.5 mg/kg/injection, schedule: Q01DX009 (ip), vehicle: Klucel (hydroxypropylcellulose) (HPC)
  T/C: 153 % of control [8 of 10 alive]
dose: 50.0 mg/kg/injection, schedule: Q01DX001 (ip), vehicle: Klucel (hydroxypropylcellulose) (HPC), evaluated on day 5
  T/C: 108 % of control
dose: 50.0 mg/kg/injection, schedule: Q01DX001 (ip), vehicle: Klucel (hydroxypropylcellulose) (HPC), evaluated on day 60
  T/C: 102, 108, 127 % of control
dose: 50.0 mg/kg/injection, schedule: Q01DX001 (ip), vehicle: saline with Tween-80
  T/C: 100 % of control
dose: 50.0 mg/kg/injection, schedule: Q01DX001 (ip), vehicle: saline
  T/C: 105, 107, 116 % of control
dose: 50.0 mg/kg/injection, schedule: Q01DX009 (ip), vehicle: Klucel (hydroxypropylcellulose) (HPC)
  T/C: 100 [9 of 10 alive], 114, 119 % of control
dose: 50.0 mg/kg/injection, schedule: Q01DX009 (ip), vehicle: saline, evaluated on day 45
  T/C: 102 and 126 % of control
dose: 50.0 mg/kg/injection, schedule: Q01DX009 (ip), vehicle: saline, evaluated on day 60
  T/C: 89, 110, 123 % of control [8 of 10 alive]
dose: 50.0 mg/kg/injection, schedule: Q04DX003 (ip), vehicle: Klucel (hydroxypropylcellulose) (HPC), evaluated on day 30
  T/C: 102 % of control [8 of 10 alive]
dose: 50.0 mg/kg/injection, schedule: Q04DX003 (ip), vehicle: Klucel (hydroxypropylcellulose) (HPC), evaluated on day 60
  T/C: 108, 120, 133 % of control
dose: 50.0 mg/kg/injection, schedule: Q04DX003 (ip), vehicle: Klucel (hydroxypropylcellulose) (HPC)
  survivor count: 10 of 10
dose: 50.0 mg/kg/injection, schedule: Q04DX003 (ip), vehicle: saline
  T/C: 116 % of control
dose: 62.0 mg/kg/injection, schedule: Q04DX003 (ip), vehicle: Klucel (hydroxypropylcellulose) (HPC)
  T/C: 105 % of control
dose: 62.5 mg/kg/injection, schedule: Q04DX003 (ip), vehicle: saline
  T/C: 109, 120, 128, 134 % of control
dose: 64.0 mg/kg/injection, schedule: Q01DX005 (ip), vehicle: water
  T/C: 102 and 142 % of control
dose: 75.0 mg/kg/injection, schedule: Q01DX009 (ip), vehicle: Klucel (hydroxypropylcellulose) (HPC)
  T/C: 104 % of control [9 of 10 alive]
dose: 75.0 mg/kg/injection, schedule: Q01DX009 (ip), vehicle: saline
  T/C: 100 % of control
dose: 75.0 mg/kg/injection, schedule: Q04DX003 (ip), vehicle: Klucel (hydroxypropylcellulose) (HPC), evaluated on day 30
  T/C: 134 % of control
dose: 75.0 mg/kg/injection, schedule: Q04DX003 (ip), vehicle: Klucel (hydroxypropylcellulose) (HPC), evaluated on day 60
  T/C: 147 % of control
dose: 75.0 mg/kg/injection, schedule: Q04DX003 (ip), vehicle: saline
  T/C: 111 % of control [9 of 10 alive]
dose: 85.0 mg/kg/injection, schedule: Q01DX001 (ip), vehicle: Klucel (hydroxypropylcellulose) (HPC), evaluated on day 5
  T/C: 97 % of control
dose: 85.0 mg/kg/injection, schedule: Q01DX001 (ip), vehicle: Klucel (hydroxypropylcellulose) (HPC), evaluated on day 60
  T/C: 97 % of control
dose: 100.0 mg/kg/injection, schedule: Q01DX001 (ip), vehicle: Klucel (hydroxypropylcellulose) (HPC), evaluated on day 5
  T/C: 117 % of control
dose: 100.0 mg/kg/injection, schedule: Q01DX001 (ip), vehicle: Klucel (hydroxypropylcellulose) (HPC), evaluated on day 60
  T/C: 100, 117 (2×), 136 % of control
dose: 100.0 mg/kg/injection, schedule: Q01DX001 (ip), vehicle: saline with Tween-80
  T/C: 108 % of control
dose: 100.0 mg/kg/injection, schedule: Q01DX001 (ip), vehicle: saline, evaluated on day 45
  T/C: 113 % of control
dose: 100.0 mg/kg/injection, schedule: Q01DX001 (ip), vehicle: saline, evaluated on day 60
  T/C: 109, 110, 121, 123, 130 % of control
dose: 100.0 mg/kg/injection, schedule: Q01DX009 (ip), vehicle: Klucel (hydroxypropylcellulose) (HPC)
  T/C: 89 and 103 % of control
[3]
  T/C: 102 and 121 % of control
  survivor count: 10 of 10 (2×)
dose: 100.0 mg/kg/injection, schedule: Q04DX003 (ip), vehicle: Klucel (hydroxypropylcellulose) (HPC), evaluated on day 30
  T/C: 89 % of control [9 of 10 alive]
dose: 100.0 mg/kg/injection, schedule: Q04DX003 (ip), vehicle: Klucel (hydroxypropylcellulose) (HPC), evaluated on day 60
  T/C: 90, 91, 120, 136, 141 % of control
dose: 120.0 mg/kg/injection, schedule: Q01DX001 (ip), vehicle: Klucel (hydroxypropylcellulose) (HPC), evaluated on day 5
  T/C: 138 % of control
dose: 120.0 mg/kg/injection, schedule: Q01DX001 (ip), vehicle: Klucel (hydroxypropylcellulose) (HPC), evaluated on day 60
  T/C: 138 % of control
dose: 125.0 mg/kg/injection, schedule: Q04DX003 (ip), vehicle: Klucel (hydroxypropylcellulose) (HPC)
  survivor count: 10 of 10
[4]
  T/C: 122 [9 of 10 alive], 127, 135 % of control
  survivor count: 10 of 10
dose: 128.0 mg/kg/injection, schedule: Q01DX005 (ip), vehicle: water
  T/C: 92 and 142 % of control [9 of 10 alive]
dose: 130.0 mg/kg/injection, schedule: Q01DX001 (ip), vehicle: Klucel (hydroxypropylcellulose) (HPC), evaluated on day 5
  T/C: 126 % of control
